These results are taken from the odorant receptor screen of Mainland et al. (2015).

What all share (experiment): odorant receptor activation (CRE luciferase / Renilla) (fold of no-odor wells); higher = more activation
Conditions in all cases: 100 µM

Test [1] deals with OR5AN1 clone 1245.
The test system of test [2] is OR5AP2 clone 1209.
In test [3] the test system is OR5AR1 clone 1207.
In test [4] the test system is OR5AS1 clone 1135.
In test [5] the test system is OR5AU1 L66F/I248V clone 1421.
In test [6] the test system is OR5AU1 clone 1344.
Test [7] deals with OR5B17 clone 1220.
The subject of test [8] is OR5B2 M200T clone 1246.
The subject of test [9] is OR5B21 I279F clone 1482.
Test [10] concerns OR5B3 clone 1138.
Test [11] relates to OR5C1 clone 1425.
The test system of test [12] is OR5D14 clone 1230.
Test [13] relates to OR5D18 N136D clone 1203.
Test [14] relates to OR5F1 S294N clone 1148.
The test system of test [15] is OR5H1 I153L/T181I clone 1473.
Test [16] deals with OR5H1 clone 1471.
Test [17] deals with OR5H14 G64R/Y189C clone 1472.
Test [18] relates to OR5H2 E11Q/I225V/I281V clone 1466.
Test [19] relates to OR5H2 clone 1055.
Test [20] concerns OR5H6 clone 1056.

Several values for one entry are separate records, joined by “and”; a condition that tells them apart may be missing. Equal entries are not always repeated. This is one part of the list. Each value is one well over the wells without odorant, computed here; the data are noisy.

As for `CCCCCCCCOC(C)=O` [octyl acetate], the odorant receptor activation came out at 1.02 in test [1]; 1.07 in [2]; 1.36 in test [3]; 1.01 in test [4]; 0.741 in [5]; 0.975 in test [6]. In addition, the odorant receptor activation in test [7] was 0.818; in test [8], 0.962; in test [9], 0.935; in test [10], 0.983; in test [11], 0.779; in [12], 1.15. In addition, the odorant receptor activation in test [13] is 1.1; in test [14], 1.01; in [15], 0.847; in test [16], 1.14; in test [17], 0.97; in test [18], 0.888. Moreover, the odorant receptor activation in test [19] worked out at 1.04; in test [20], 1.03.
As to `CC(C)C=O` [isobutyraldehyde], the odorant receptor activation was 1.04 and 1.1 in test [1]; 0.892 in test [2]; 1.11 in [3]; 1.03 in test [4]; 0.889 in test [5]; 1.47 and 1.18 in [6]. In addition, the odorant receptor activation in test [7] is 0.778; in test [8], 0.851 and 0.889; in [9], 1.05 and 1.19; in test [10] it was 1.09; in test [11], 0.715; in test [12], 1.2. The odorant receptor activation in test [13] is 1; in test [14], 1.16; in test [15], 0.95 and 1.08; in test [16] it was 0.816 and 0.932; in [17], 0.958 and 0.959; in test [18], 0.977 and 0.957. In addition, the odorant receptor activation in test [19] is 0.842; in test [20], 1.07.
As to `CC(=O)OC(C)(C)C1CC=C(C)CC1` (stereo not given) [terpinyl acetate], the odorant receptor activation amounted to 0.829 in [1]; 1.28 in test [2]; 1.5 in test [3]; 1.1 in test [4]; 1.18 in test [5]; 0.834 in [6]. The odorant receptor activation in [7] was 0.989; in [8], 0.699; in test [9] it was 0.962; in test [10], 1.39; in test [11], 1.17; in [12] it was 1.12. Further, the odorant receptor activation in test [13] amounted to 1.36; in test [14] it was 1.26; in [15], 1.16; in [16], 1.19; in test [17], 1.05; in [18] it was 0.916. The odorant receptor activation in test [19] worked out at 2.15; in test [20] it was 1.54.
In the case of `CC(=O)C(C)=O` [diacetyl], the odorant receptor activation in [1] amounted to 1.1; in test [2], 1.17; in test [3], 1.44; in [4] it was 1.3; in test [5], 1.38; in test [6], 1.01. Moreover, the odorant receptor activation worked out at 0.889 in [7]; 0.995 in [8]; 1.43 in test [9]; 1.11 in [10]; 0.832 in test [11]; 1.12 in [12]. Moreover, the odorant receptor activation was 1.06 in test [13]; 1.21 in test [14]; 1.02 in test [15]; 1.15 in [16]; 1.48 in [17]; 1.47 in test [18]. The odorant receptor activation in test [19] came out at 0.994; in test [20] it was 1.39.
Regarding `C=C(C)C1CC=C(C)C(=O)C1` (stereo not given) [r-carvone], the odorant receptor activation was found to be 0.637 in test [1]; 1.1 in [2]; 0.834 in test [3]; 1.02 in test [4]; 1.35 in [5]; 0.739 in test [6]. In addition, the odorant receptor activation in test [7] was 0.909; in test [8] it was 0.665; in test [9], 1.09; in test [10] it was 1.04; in test [11] it was 1.36; in [12], 1.19. Moreover, the odorant receptor activation in [13] worked out at 1.05; in test [14], 1.02; in test [15], 0.995; in [16], 1.03; in test [17], 0.932; in test [18] it was 0.785. In addition, the figures for the odorant receptor activation in test [19] and in [20] were 1.21 and 0.983, respectively.
Regarding `O=CCc1ccccc1` [phenyl acetaldehyde], the odorant receptor activation in [1] amounted to 0.846; in [2], 0.836; in [3], 1.12; in [4], 1.45; in test [5], 1.74; in [6], 1.31. Also, the odorant receptor activation in [7] was determined as 1.35; in [8] it was 0.941; in [9], 1.49; in test [10] it was 1.48; in [11] it was 1.23; in test [12], 1.08. The odorant receptor activation came out at 0.941 in test [13]; 1.34 in test [14]; 1.34 in [15]; 1.65 in test [16]; 1.16 in test [17]; 1.38 in test [18]. Also, the odorant receptor activation worked out at 1.18 in [19] and 1.27 in test [20].
Consider `CCCCCCCCC=O` [nonyl aldehyde], for which the odorant receptor activation in [1] was 0.979; in [2], 1.21; in test [3], 1.25; in test [4] it was 0.906; in test [5], 0.87; in [6] it was 0.958. Further, the odorant receptor activation stood at 0.859 in test [7]; 1.04 in test [8]; 1.23 in test [9]; 1 in test [10]; 0.803 in test [11]; 1.05 in test [12]. Further, the odorant receptor activation in test [13] came out at 0.977; in [14], 0.894; in test [15] it was 1.01; in test [16], 1.02; in test [17], 1.06; in test [18], 1.05. Besides, the odorant receptor activation is 0.917 in test [19] and 1.08 in test [20].
As for `O=C1CCCCCCCCCCCC(=O)OCCO1` [ethylene brassylate], the odorant receptor activation in test [1] is 2.6; in [2], 1.91; in test [3], 1.87; in test [4], 1.61; in [5], 1.67; in test [6], 1.4. The odorant receptor activation in test [7] was found to be 1.44; in [8] it was 1.48; in [9], 1.43; in test [10], 1.75; in [11], 1.29; in test [12], 2.14. The odorant receptor activation is 2 in test [13]; 1.63 in test [14]; 1.33 in test [15]; 1.62 in test [16]; 1.94 in test [17]; 2.21 in test [18]. Moreover, the odorant receptor activation in [19] stood at 1.41; in test [20], 1.48.
As to `O=C1CCCCCCCCCCCCCCO1` [pentadecalactone], the odorant receptor activation turned out to be 1.13 in test [1]; 0.82 in [2]; 0.84 in test [3]; 0.927 in [4]; 1.34 in test [5]; 0.78 in [6]. Further, the odorant receptor activation in test [7] turned out to be 0.71; in [8] it was 0.552; in [9], 0.986; in test [10], 0.811; in test [11], 1.46; in [12], 0.88. Also, the odorant receptor activation in [13] is 0.788; in [14] it was 0.907; in test [15] it was 0.895; in test [16] it was 1.06; in test [17], 0.919; in [18], 0.774. The values for the odorant receptor activation in test [19] and in test [20] were 0.968 and 0.817, respectively.
With `COc1cc(C)ccc1O` [2-methoxy-4-methylphenol], the odorant receptor activation was 0.773 in [1]; 0.623 in test [2]; 1.13 in test [3]; 1.21 in [4]; 0.83 in test [5]; 1 in test [6]. Besides, the odorant receptor activation in test [7] amounted to 1.29; in test [8], 1.31; in [9] it was 0.792; in test [10] it was 1.46; in [11] it was 0.697; in test [12], 1.21. Further, the odorant receptor activation is 1.28 in test [13]; 1.44 in [14]; 0.821 in test [15]; 0.831 in [16]; 1.08 in test [17]; 0.847 in test [18]. The odorant receptor activation in [19] came to 1.78; in test [20], 1.97.
For `C=CC(C)(O)CCC=C(C)C` (stereo not given) [linalool], the odorant receptor activation in test [1] was 0.838; in test [2], 1.07; in [3] it was 1.06; in [4] it was 0.887; in test [5], 0.923; in test [6], 0.888. Further, the odorant receptor activation in test [7] was 0.925; in test [8] it was 1.1; in [9] it was 1.04; in test [10] it was 0.823; in test [11], 0.979; in test [12], 1.03. Moreover, the odorant receptor activation came out at 1.2 in [13]; 0.949 in test [14]; 0.922 in [15]; 1.15 in test [16]; 0.908 in [17]; 1.03 in test [18]. In addition, the odorant receptor activation in test [19] is 1.14; in [20], 1.23.
For the compound `CC/C=C\CCO` [cis-3-hexen-1-ol], the odorant receptor activation is 0.766 in [1]; 0.869 in [2]; 0.932 in test [3]; 1.21 in test [4]; 0.458 in test [5]; 0.799 in test [6]. The odorant receptor activation in test [7] worked out at 1.02; in [8], 0.979; in [9], 0.922; in test [10] it was 1.08; in test [11], 0.393; in test [12], 1.21. Also, the odorant receptor activation in [13] turned out to be 0.779; in test [14], 0.988; in test [15], 0.762; in test [16], 1.11; in test [17] it was 0.952; in [18] it was 0.986. The figures for the odorant receptor activation in test [19] and in [20] were 1.11 and 1, respectively.
In the case of `CCCCCC(=O)O` [caproic acid], the odorant receptor activation was 0.817 in [1]; 0.935 in test [2]; 1.23 in [3]; 1.07 in test [4]; 0.367 in test [5]; 0.763 in [6]. Further, the odorant receptor activation in test [7] was 0.953; in [8], 0.874; in test [9] it was 0.961; in [10], 1.3; in test [11], 0.308; in [12] it was 1.08. The odorant receptor activation in test [13] was determined as 0.835; in test [14] it was 1; in test [15], 0.884; in [16], 0.866; in test [17] it was 0.854; in test [18] it was 0.799. The odorant receptor activation came out at 1.08 in test [19] and 0.947 in test [20].
